# PubChem BioAssay AID1053208 | Peter MacCallum Cancer Centre – 2014
# Test: 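Find knock-downs that sensitise mouse osteosarcoma cells to doxorubicin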 (primary screen)
# Cells: mouse osteosarcoma cells, early-passage culture from an engineered mouse model of fibroblastic bone tumour
# Knock-down reagent: siRNA pool against mouse genes, 40 nM
# Duration: about 120 h (48 h before drug, then 72 h with drug)
# Conditions: doxorubicin 100 nM for 72 h, roughly 30-40% inhibitory dose
# Measured: 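Viability read as ATP luminescence after 72 h of 100 nM doxorubicin or none, duplicate wells averaged, scaled to non-targeting siRNA, then expressed as robust z-scores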
# Scale: viability z-score with doxorubicin: higher = more viable cells under doxorubicin; viability z-score without drug: higher = more viable cells with knock-down alone
# Active means: 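a pool counts as active when its viability z-score with doxorubicin is -2 or below and its z-score without drug lies between -2 and 2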
# In all, the deposit lists about 17,000 reagents; this is an unselected part. Of all reagents, 788 (4.7%) were called active. 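Calls rest on z-score classes alone; an extra cut-off of viability at most 70% of control was not applied to them.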 A number with no mark means an inactive call. Not all columns of the deposit are shown.
gene symbol,PubChem SID,combined z-score class,viability z-score with doxorubicin,viability z-score without drug
Endou,SID152286508,no change with or without drug,1.35,0.17
Txnrd3,SID152333707,no change with or without drug,-1.12,-0.84
Rpl39l,SID152267158,no change with or without drug,-1.12,0.51
Aldh16a1,SID152327897,low cell count with doxorubicin only (active),-3.6,-1.69
Dio2,SID152268036,no change with or without drug,0.22,1.18
Napa,SID152287600,low cell count with and without drug,-6.07,-5.9
Or8g34,SID152279183,no change with or without drug,-1.01,-0.51
Chst12,SID152292372,no change with or without drug,-1.8,0.51
Sv2b,SID152330354,no change with or without drug,0,-0.34
Cbln2,SID152317565,no change with or without drug,-0.34,-0.84
Slc26a6,SID152272009,high cell count with doxorubicin only,2.02,1.52
Prelp,SID152268169,high cell count without drug only,1.35,2.19
Trim60,SID152317686,no change with or without drug,0.11,0.17
Aass,SID152310043,high cell count without drug only,-0.22,2.7
Klk9,SID152260401,no change with or without drug,-0.22,0.17
Gcm1,SID152273830,no change with or without drug,0.34,0.51
Hnrnpf,SID152284553,no change with or without drug,0.22,0.67
Tasp1,SID152326156,no change with or without drug,0.11,0.17
Irgm1,SID152313031,no change with or without drug,-1.35,0.51
Bnip1,SID152317913,no change with or without drug,-1.57,-1.69
Or2a56,SID152342456,no change with or without drug,-1.91,-1.18
Trim37,SID152281504,no change with or without drug,-0.67,1.18
Hc,SID152301272,no change with or without drug,0.45,0.67
Cav1,SID152323467,no change with or without drug,-0.45,0.84
4833439L19Rik,SID152332916,no change with or without drug,0.22,0.51
Or9s15,SID152332395,low cell count with and without drug,-2.7,-2.02
Fdx1,SID152289830,no change with or without drug,-0.34,-0.17
Zfp871,SID152275222,no change with or without drug,-0.22,-0.34
Vash2,SID152259290,no change with or without drug,0.34,0.51
Defb11,SID152294129,no change with or without drug,1.01,0
Aire,SID152340217,no change with or without drug,-1.46,-0.51
Grb2,SID152332754,no change with or without drug,0,-0.34
Marchf10,SID152270206,high cell count without drug only,-0.45,2.19
Mbl2,SID152313785,high cell count with doxorubicin only,2.02,0.84
Trarg1,SID152299750,no change with or without drug,0.45,1.01
Hpca,SID152334921,no change with or without drug,-0.22,1.35
C1qtnf3,SID152295581,no change with or without drug,1.91,1.01
Cyp46a1,SID152314118,no change with or without drug,0.79,1.01
Vps13b,SID152314812,no change with or without drug,-0.11,-0.84
Pbdc1,SID152291881,no change with or without drug,0,-0.51
Lpin3,SID152278804,low cell count without drug only,-1.12,-2.19
Defa-rs2,SID152295089,high cell count without drug only,0.9,2.36
Cnnm4,SID152279071,no change with or without drug,0.22,-0.17
Ccl27a,SID152328046,no change with or without drug,0.67,0
Gipc3,SID152317629,no change with or without drug,1.46,1.18
Ccdc70,SID152290307,no change with or without drug,-1.12,-0.84
Elmod3,SID152303252,no change with or without drug,0.67,-0.51
Tmem184a,SID152279073,high cell count with and without drug,3.26,2.19
Nfib,SID152269421,no change with or without drug,0.34,0.84
Nfib,SID152275067,no change with or without drug,1.35,-0.17

Limited to “viability z-score without drug”, for 6 of the entries above:
Aldh16a1 [SID152327897]: -1.69 (active)
Dio2 [SID152268036]: 1.18
Napa [SID152287600]: -5.9
Or8g34 [SID152279183]: -0.51
Chst12 [SID152292372]: 0.51
Sv2b [SID152330354]: -0.34
